Laboratory results taken from PubChem BioAssay AID2685 (National Center for Advancing Translational Sciences (NCATS), 2010).
The list shows a part of the results. These are further read-outs of the screen, such as a control signal, another cell line or another target. No call is given for them. Compounds called inactive in the main read-out are mostly missing here. The note in brackets gives the kind of curve behind each potency; many fits are weak.

Experiment: qHTS Assay for Lipid Storage Modulators in Drosophila S3 Cells;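 for cell number change: cells counted by Cell Tracker Red CMTPX staining in the red channel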
Conditions: BODIPY lipid droplet fluorescence, 18-24 h; for cell number change: measured here: cell count max response, cells fed with added oleic acid
How it was run: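 Drosophila S3 cells loaded with oleic acid (400 uM, as added) and compounds at several concentrations; lipid droplets imaged by 488-nm laser-scanning cytometry, 500–530 nm intensity and object ratio to cell channel. Percent activity normalized to 20 uM Triacsin C.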

[1] = measured here: lipid fluorescence (Fed channel) AC50, cells fed with added oleic acid
[2] = measured here: cell number channel AC50, cells fed with added oleic acid

SMILES | cell number change [%] | AC50 [1] | AC50 [2]
C=C(C)COc1ccc2c(C)c(CCC(=O)NC3CC3)c(=O)oc2c1 | 17.2 | 29.1 µM [rising, single point] | –
CCCC1=C(C(=O)OCC)C(c2ccc(N(C)C)cc2)n2ncnc2N1 (stereo unspecified) | -10.8 | 2.31 µM [rising, single point] | –
CN(NC(N)=O)c1ncc(C(F)(F)F)cc1Cl | -82.3 | 29.1 µM [falling, single point] | 29.1 µM [falling, single point]
CCCCc1ccc(-c2nc(N)n[nH]2)cc1 | -19 | 29.1 µM [falling, single point] | –
O=C(Cc1ccccc1)Nc1ccc(NC(=O)c2cccs2)cc1Cl | 31.6 | 11.6 µM [rising, single point] | 9.2 µM [rising, partial curve, poor fit]
CCOC(=O)N1CCN(CC(=O)Nc2c(C(=O)OC)[nH]c3cc(C)ccc23)CC1 | -15.1 | – | 0.00461 µM [falling, full curve, poor fit]
Cc1ccc(S(=O)(=O)/N=C(/Nc2ccc(O)c(C(=O)O)c2)c2ccccc2)cc1 | -22.9 | 0.0164 µM [falling, full curve, poor fit] | –
Oc1cc(-c2ccccc2)c2ccccc2c1 | -65.6 | 14.6 µM [falling, partial curve, poor fit] | 32.6 µM [falling, partial curve]
Cc1cc(Cl)cc(Br)c1OCCCNCC(C)O (stereo unspecified) | 131 | – | 23.1 µM [rising, partial curve]
COc1ccc(S(=O)(=O)NC(C)C)cc1-n1cnnn1 | 14.4 | 0.651 µM [falling, full curve] | –
CC(Oc1ccc(F)cc1Br)c1nc2ccccc2c(=O)[nH]1 (stereo unspecified) | -21.9 | – | –
CC(=O)N/C(=C\c1ccc(F)cc1)C(=O)NC(Cc1ccccc1)C(=O)O (stereo unspecified) | -13.7 | – | 2.59 µM [rising, single point]
C/C(=N\NC(=O)c1cccnc1)c1ccc(-n2ccnc2)cc1 | 3.42 | 0.259 µM [falling, full curve, poor fit] | –
C[N+]1(CCOc2ccc([N+](=O)[O-])cc2)CCOCC1 | 5.58 | 10.3 µM [rising, single point] | –
CCc1cc2ccc(C)cc2nc1SCC(=O)Nc1cc(OC)c(OC)cc1C(=O)O | 44.8 | 23.1 µM [rising, single point] | 9.2 µM [rising, partial curve]
Cc1cccc(Nc2nc(NCc3ccco3)nc(N3CCOCC3)n2)c1 | -14.9 | 2.91 µM [rising, full curve] | –
O=C(CCn1[nH]c(=O)c2ccccc2c1=O)N1CCOCC1 | -91.4 | 29.1 µM [rising, single point] | 16.4 µM [falling, single point]
CS(=O)(=O)N1N=C(c2ccc3nccnc3c2)CC1c1ccccc1 (stereo unspecified) | 6 | – | –
COc1ccc2cc3cc(C(=O)N4CCCCC4C)oc3nc2c1 (stereo unspecified) | – | 5.17 µM [rising, single point] | –
CC(=O)Oc1ccc2ccccc2c1C(NC(=O)C(C)C)c1cccc([N+](=O)[O-])c1 (stereo unspecified) | – | 29.1 µM [falling, single point] | –

Some values from the results shown.
AC50 [1] with CCCCc1ccc(-c2nc(N)n[nH]2)cc1 is entered as 29.1 µM [falling, single point]
AC50 [1] with COc1ccc2cc3cc(C(=O)N4CCCCC4C)oc3nc2c1 (stereo unspecified) is entered as 5.17 µM [rising, single point]
AC50 [1] with CCc1cc2ccc(C)cc2nc1SCC(=O)Nc1cc(OC)c(OC)cc1C(=O)O is entered as 23.1 µM [rising, single point]
AC50 [2] with O=C(Cc1ccccc1)Nc1ccc(NC(=O)c2cccs2)cc1Cl is entered as 9.2 µM [rising, partial curve, poor fit]

More records

SMILES | cell number change [%] | AC50 [1] | AC50 [2]
Cc1ccc(S(=O)(=O)N2CCC(C(=O)N[C@H](C(=O)N3CCN(C)CC3)C(C)C)CC2)cc1 | -40.7 | 4.11 µM [falling, full curve] | 3.66 µM [falling, full curve]
Cc1cc(=O)oc2cc(OCc3ccc(C(=O)N4CCN(c5ccccc5)CC4)cc3)ccc12 | – | 2.91 µM [rising, single point] | –
O=C(/C=N/O)NCc1ccncc1 | -26.3 | 29.1 µM [falling, single point] | –
CCCN(CCO)Cc1cccc(Cl)c1 | -102 | 14.6 µM [falling, partial curve] | 10.3 µM [falling, partial curve]
CCc1ccc(OCC(=O)N2CC(C(N)=O)Oc3ccccc32)cc1 (stereo unspecified) | 4.17 | – | –
CN(C)c1ccc(N=Nc2ccccc2C(=O)OCC(=O)N(C)C2CCCCC2)cc1 | -46.7 | 20.6 µM [falling, partial curve] | 18.4 µM [falling, single point]
Cc1occc1-c1nnc(SCC(=O)N2CCOCC2)o1 | -2.08 | 0.731 µM [falling, full curve, poor fit] | –
CN(C)c1ccc(-c2nc3ccccc3n2C)cc1 | -9.86 | 0.58 µM [falling, full curve, poor fit] | –
CC(C)=NNc1nc(-c2ccccc2)c(C)s1 | 28.6 | 3.66 µM [rising, full curve, poor fit] | –
CCc1ccc(OCC(=O)N/N=C(\C)c2ccccc2OC(F)F)cc1 | 6.61 | – | –
CC1Cc2ccccc2N1C(=O)CN1CCCCC1 (stereo unspecified) | 22.9 | – | –
Cc1ccc(NC(=O)CC2Oc3ccccc3NC2=O)c(C)c1 (stereo unspecified) | -13.6 | 0.326 µM [rising, full curve] | –
O=C(c1cc(COc2ccccc2)on1)N1CCCC(CN2CCOCC2)C1 (stereo unspecified) | -17.3 | 6.51 µM [rising, single point] | –
N#CCCN(C(=O)COC(=O)CCN=C1NS(=O)(=O)c2ccccc21)c1ccc(F)cc1 | -19.6 | 0.461 µM [falling, full curve] | –
CCOc1ccc(/C=N/N2CCN(Cc3ccccc3)CC2)cc1 | -26 | – | –
CSc1nc(-c2ccccc2)nc2c1COC(C)(C)C2 | -33.3 | 20.6 µM [falling, single point] | 8.2 µM [falling, partial curve]
Cc1ccc(S(=O)(=O)N(C)C)cc1N | 7.98 | – | 0.731 µM [rising, single point]
CCOCCn1c(=NC(=O)c2cc3ccccc3oc2=O)sc2cc(S(N)(=O)=O)ccc21 | 15.7 | 0.0291 µM [rising, full curve, poor fit] | 1.64 µM [rising, partial curve, poor fit]
O=C(NCc1ccco1)c1ccc2c(=O)n(Cc3ccco3)c(SCC(=O)N3CCCC3)nc2c1 | -48.3 | 2.91 µM [rising, full curve] | 29.1 µM [falling, single point]
O=C1CSC(c2ccccn2)N1c1ccc(Br)cc1 (stereo unspecified) | 9.34 | 0.164 µM [rising, full curve, poor fit] | –

SMILES | cell number change [%] | AC50 [1] | AC50 [2]
CCC(=O)N1CCN=C1SCc1ccccc1 | 0.0752 | 6.51 µM [rising, single point] | 6.51 µM [rising, single point]
Cc1[nH]c2ccccc2c1C(=O)CSC(=S)N1CCOCC1 | – | 0.00517 µM [rising, full curve, poor fit] | 0.0206 µM [rising, full curve, poor fit]
Cc1cc(=O)[nH]c(SCCOc2cccc(C(F)(F)F)c2)n1 | -32.1 | 0.00461 µM [falling, full curve, poor fit] | 25.9 µM [falling, single point]
CC(=O)c1cccc(NC(=S)NC(=O)C(C)C)c1 | -3.16 | – | 0.651 µM [rising, single point]
O=C(Nc1ccc(Br)cc1)c1cccc(NC(=O)C2C3CC4OC(=O)C2C4C3)c1 (stereo unspecified) | – | – | 0.461 µM [falling, single point]
Cc1nn(-c2ccccc2)c(N)c1Sc1ccc([N+](=O)[O-])cc1 | -21.6 | 2.31 µM [falling, partial curve, poor fit] | –
Cc1noc(NS(=O)(=O)c2ccc(NC(=O)CSc3nc4c(cc3C#N)CCCCC4)cc2)c1C | 32.6 | – | 0.231 µM [rising, full curve, poor fit]
COCCSc1nnc(NC(=O)C2CCCCC2)s1 | 23.7 | – | 0.259 µM [rising, full curve, poor fit]
COc1cc(C)c(Cl)cc1S(=O)(=O)N1CCCC1 | – | 2.59 µM [falling, partial curve] | 3.66 µM [falling, single point]
CC1N(C)c2cc(NC(=O)c3cccs3)c(P(=O)(Nc3ccc([N+](=O)[O-])cc3)N3CCOCC3)cc2C1(C)C (stereo unspecified) | – | 29.1 µM [rising, single point] | –
CCN(CC(=O)Nc1c(F)cccc1F)C(=O)CCNS(=O)(=O)c1ccccc1C(F)(F)F | 15.3 | 1.46 µM [rising, partial curve] | 0.082 µM [falling, full curve, poor fit]
CCCCN(C)C(=O)c1sc2ncn(CC)c(=O)c2c1C | -40.6 | – | 32.6 µM [falling, single point]
CC(=O)Nc1ccc(N2C(=O)CSC2c2ccc(F)cc2)cc1 (stereo unspecified) | 4.26 | – | –
Cn1c(SCCN2CCCCC2)nnc1-c1ccccc1Br | -66.8 | 20.6 µM [falling, single point] | 20.6 µM [falling, partial curve]
COc1ccc(C2C(C#N)=C(N)Oc3cccc(O)c32)cc1 (stereo unspecified) | -3.23 | 29.1 µM [rising, single point] | –
CCOC(=O)c1cc2sccc2n1CC(=O)N1CCCC1 | 36.8 | 4.11 µM [rising, single point] | 16.4 µM [rising, partial curve]
COc1ccc(C2Oc3ccccc3N2C(C)=O)cc1 (stereo unspecified) | 61.1 | 20.6 µM [rising, single point] | 18.4 µM [rising, single point]
COCCNC(=S)N/N=C(\C)c1ccc(Cl)c(Cl)c1Cl | 18.3 | – | 0.00461 µM [rising, full curve, poor fit]
